According to PubChem BioAssay AID687031 (Broad Institute, 2013):
Hit rate of the full screen: of about 1,400 compounds, about 50 (4%) were called active.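 Rule for the calls: active = fitted curve reaches 30% CPE protection at or below the top valid dose, with every test run called active; inconclusive = test runs disagree, some active and some not; inactive = every test run inactive, including effects in the wrong direction.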 The list shows a part of the results. Results with a measured potency or affinity are listed apart.

Assay: antiviral rescue of DENV2-infected BHK-21 cells – cell-based, ATP luminescence, cherry-pick, dose response (AID 687031);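 note: 0% = infected DMSO wells and 100% = uninfected cell wells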
Settings: BHK-21 DENV2 CPE protection, 5 d; at 19.5 µM (top of the series) unless noted

CPE protection (higher = active), inactive:
Cc1cc(F)ccc1S(=O)(=O)Nc1ncnc2scc(-c3ccc(F)cc3)c12 -25.9%
COC(=O)C[C@H]1c2cc(C(F)(F)F)ccc2S(=O)(=O)N1Cc1ccc(OC)cc1 14.6%
O=C(NC1(Cc2ccccc2)CCN(CCc2cccs2)C1=O)c1ccccc1 (configuration not stated) 5.82%
COc1ccc(S(=O)(=O)N(CC(C)C)CC(C)C)c2cccnc12 -14.7%
Cc1ccc(NC(=O)C2CCN(S(C)(=O)=O)CC2)cc1Cl 20.7%
C[C@@H]1CCCCO[C@H](CN(C)S(C)(=O)=O)[C@@H](C)CN([C@H](C)CO)C(=O)c2cc(NC(=O)CCC(F)(F)F)ccc2O1 -9.98%
CCNC(=O)C[C@H]1CC[C@H]2[C@@H](COC[C@H](O)CN2C(=O)c2cccnc2)O1 24.6%
CN(C)c1ccc(-c2cc3ccccc3c(=O)o2)cc1 25%
CCOc1ncccc1C(=O)OCC(=O)NCc1ccc(C(=O)OC)cc1 -12.9%
CCC(=O)N1C[C@H](O)COC[C@H]2O[C@@H](CC(=O)NCc3ccc(Oc4ccccc4)cc3)CC[C@@H]21 4.3%
CN(Cc1ccccc1)C(=O)c1nc[nH]c1C(=O)N1CCN(C(=O)OC(C)(C)C)CC1 5.46%
O=C(CCc1nnc(Cc2c[nH]c3ccccc23)o1)NCCC1CCCCO1 (configuration not stated) 17.1%
CC(C)(C)c1ccc(C(=O)Nc2ccc3c(c2)C(=O)NC3=O)cc1 -8.18%
COCCNC(=O)C1(C)CCCN(C(=O)c2ccc(C(F)(F)F)cc2)C1 (configuration not stated) 16.3%
F[B-](F)(F)c1cnc2ccccc2c1 3.87%
C[C@H](CO)N1C[C@H](C)[C@@H](CN(C)C(=O)CCCN(C)C)OCCCC[C@H](C)Oc2ccc(NC(=O)CCCN(C)C)cc2C1=O -4.32%
O=C(Nc1cccc(Cl)c1)c1ccccc1 -11.5%
CC(C)CCCN1CCN=C1Nc1ccccc1 -1.07%
Cc1ccc(F)cc1C(=O)N1CCCCC1c1cc(C(=O)NC(C)C)no1 (configuration not stated) 0.927%
Cc1cccnc1NC(=O)c1cccc(S(=O)(=O)N2CCCC2)c1 7.84%
CC(C)(C)c1ccc(NC(=O)NC2CCCc3ccccc32)cc1 (configuration not stated) -3.54%
Cc1ccc(C2(C)NC(=O)N(CC(=O)Nc3ccccc3C(=O)NC3CCCC3)C2=O)cc1 (configuration not stated) -15.6%
COCCNC(=O)C1CCC(CNS(=O)(=O)c2ccc(F)cc2)CC1 (configuration not stated) -10.5%
CC1Cc2ccccc2N1S(=O)(=O)c1cnc(Cl)c(Br)c1 (configuration not stated) 10.4%
CCCCCc1c(-c2ccccc2OC)ncn1CCc1ccccc1OC -45.3%
O=C(NCC1CCCCC1)[C@H]1[C@H](CO)[C@H]2Cn3c(cccc3=O)[C@@H]1N2CCc1ccccc1 1.51%
CC(C)(C(=O)N1CCC1(C)C(=O)Nc1ccccc1Br)c1ccccc1 (configuration not stated) -12.7%
CCOc1ccc(C(=O)Nc2ccc(CN3CCOCC3)cc2)cc1Cl 2.94%
CC(=O)N1c2ccc(S(=O)(=O)NCCC(=O)N3CCCC(C)C3)cc2CC1C (configuration not stated) -15.9%
COc1cccc(NC(=O)CN(C)C(=O)c2cccc(S(=O)(=O)N3c4ccccc4CC3C)c2)c1 (configuration not stated) 21%
COc1ccc(-c2csc(C(O)c3cccc(OC)c3)n2)cc1 (configuration not stated) 1.12%
COc1cccc(OCc2cc(C(=O)N(C)CCC3CCCCO3)no2)c1 (configuration not stated) -20.7%
Cc1cc(Br)ccc1NC(=O)CN(C)C(=O)COc1cccc2c1OC(C)(C)C2 -3.52%
CC(C)(C)C1CCC(=O)N(CCOc2ccccc2)CC1 (configuration not stated) -17%
O=C(Nc1ccc2ccccc2c1)C(C1CC1)n1c(=O)c(-c2cc3ccccc3[nH]2)nc2ccccc21 (configuration not stated) -19.6%
COc1cc(C)ccc1OCc1cc(C(=O)NCCN2CCCC(O)C2)no1 (configuration not stated) 4.9%
CC1(C(=O)NS(=O)(=O)c2ccccc2C(F)(F)F)CCN1C(=O)CCc1ccccc1 (configuration not stated) -5.16%
Cc1cccc(C)c1NC(=O)C(C)n1c(-c2ccc(=O)[nH]c2)nc2ccccc21 (configuration not stated) 6.02%
N#C[C@@H]1[C@H](c2ccc(C#Cc3ccccc3F)cc2)[C@H](CO)N1C(=O)C1CCC1 -5.68%
C[C@@H]1CN([C@H](C)CO)C(=O)Cc2cc(NC(=O)C3CC3)ccc2O[C@H]1CN(C)C(=O)Nc1ccccc1 -0.483% [at 21 µM]
CC(C)Oc1ccccc1OC1(C)CCN(Cc2ccc(OC(F)(F)F)cc2)C1 (configuration not stated) 17.1%
CCCC#Cc1cnc2c(c1)C(=O)N([C@@H](C)CO)C[C@@H](C)[C@H](CN(C)C(=O)c1ccc3c(c1)OCO3)O2 14%
O=C1Nc2ccccc2C(=O)N(C2CCCC2)C1C(=O)NC1CC1 (configuration not stated) -7.26%
CC(C)(C)NC(=O)C(c1cccc2ccccc12)n1c(=O)c(-c2ccccc2)nc2ccccc21 (configuration not stated) -34.4%
Cc1ccccc1S(=O)(=O)N1C[C@@H](O)COC[C@@H]2O[C@H](CC(=O)N3CCCCC3)CC[C@H]21 8.68%
O=S(=O)(NCCC1=CCCCC1)c1ccc(Br)cc1 3.04%
CSCCC(NS(=O)(=O)c1cccs1)C(=O)NCc1ccccc1 (configuration not stated) -0.773%
O=C(C1CCCCC1)N1C[C@H](O)[C@@H](n2cc(C3CC3)nn2)C[C@@H]1c1ccccc1 3.91%
O=C(NCCN1CCC(n2c(=O)[nH]c3ccccc32)CC1)c1ccccc1 8.45%
CC(C)(C)OC(=O)N1CCC(NC(=O)c2nc[nH]c2C(=O)NCc2ccccc2)CC1 20%
CN(CC(=O)Nc1ccc(F)cc1)C(=O)COC(=O)c1nc(Cl)ccc1Cl 9.36%
CC(C)Cn1c(=S)[nH]c2cc(C(=O)NCc3ccccc3F)ccc2c1=O 0.65%
O=C1c2ccccc2CN1CCSC(=S)N1CCOCC1 -2.61%
CC(C)SCc1cc(N2CCCC2)nc(-c2ccccc2)n1 -9.75%
COCCNC(=O)CCC1CCN(Cc2ccc(-c3ccccc3)cc2)CC1 -10.3%
CC(C)(C)NC(=O)COc1coc(CN2CCN(Cc3ccccc3)CC2)cc1=O 10.1%
C[C@@H]1CN([C@@H](C)CO)C(=O)c2cc(C#Cc3cccc(F)c3)cnc2O[C@@H]1CN(C)C(=O)C1CCC1 -0.303%
COc1ccc(-c2cc(C(=O)NCCCN3CCCC3=O)c3ccccc3n2)cc1 -27.2%
CC(C)CNC(=O)C1(C)CCCCCN1C(=O)c1csnn1 (configuration not stated) 28.5%
Cc1noc(C)c1NC(=O)Nc1ccc2c(c1)C(=O)N([C@H](C)CO)C[C@@H](C)[C@H](CN(C)S(=O)(=O)c1ccc(F)cc1)O2 5.12%
COc1ccc(NC(=O)C2CCCN2S(=O)(=O)c2ccc3c(c2)CCC(=O)N3)c(OC)c1 (configuration not stated) 1.59%
COc1ccc(N(CC(=O)NCCSc2ccccc2)S(=O)(=O)c2ccccc2)c(OC)c1 -3.02%
O=C(c1ccccc1Cc1ccccc1)N1CCN(S(=O)(=O)c2ccccc2)CC1 0.551%
COc1ccc(C(CNC(=O)COc2cc(C)ccc2Cl)N2CCCCC2)cc1 (configuration not stated) -7.55%
Cc1ccc(-c2csc(NCCn3c(C)nc4cc(C(F)(F)F)ccc43)n2)cc1 28.3%
O=c1cc(-c2cccc(F)c2)[nH]c2ccccc12 -10.6%
COc1ccc([C@H]2/C=C\CN(C(=O)c3ccc(C)cc3)[C@@H](C)C(=O)N2Cc2ccc(F)cc2)cc1 -6.91%
CC(=O)N1[C@H](CO)[C@@H](c2ccc(-c3cccc(F)c3)cc2)[C@H]1CNC(=O)C1CC1 18%
CC(C)(C)OC(=O)NC(CC(=O)OCc1ccccc1)C(=O)O (configuration not stated) 21.4%
CCOc1ccc(C(=O)NCC(=O)N2CCCCCCC2)cc1 11.9%
CCNC(=O)C[C@@H]1CC[C@@H]2[C@H](COc3ccc(NC(=O)c4ccc(F)c(F)c4)cc3C(=O)N2C)O1 -3.02%
COc1ccccc1-c1cncc(NC(C)=O)n1 0.302%
O=C(Nc1ccc(Br)cc1F)C1CCN(c2nnc(-n3cccc3)s2)CC1 -17.6%
Cc1ccc(CNC(=O)C2CCC(=O)N(CCc3ccccn3)C2)s1 (configuration not stated) -1.35%
COc1cccc(NC(=O)N2[C@@H]3CNC[C@H]2C3c2ccc(-c3ccccc3)cc2)c1 (some centres not stated) -7.29% [at 21 µM]
CCCN1[C@H](C(=O)OC)[C@@H](CO)[C@@H]2Cn3c(ccc(C4=CCCC4)c3=O)[C@@H]21 8.66%
Cc1ccc(C)c(NS(=O)(=O)c2cc(C(=O)NCc3ccncc3)ccc2C)c1 15.2%
CCOc1cccc(-c2c(C(=O)N/N=C/c3ccc(Br)cc3)nnn2-c2nonc2N)c1 -1.09%
CCCCOc1ccc(C(=O)NCCOc2cccc(OC)c2)cc1 -13.7%
Cc1nc(C(F)(F)F)ccc1C(=O)N1CCC1(C)C(=O)NS(=O)(=O)c1ccc(C#N)cc1 (configuration not stated) -3.13%
C[C@@H]1CCCCO[C@H](CN(C)Cc2ccc(C(F)(F)F)cc2)[C@H](C)CN([C@@H](C)CO)C(=O)c2cc(NC(=O)c3ccccc3)ccc2O1 -3.09% [at 5 µM]
Nc1ccccc1C(O)(Cc1ccccc1)c1ccccc1 (configuration not stated) 23.5%

Not a retest: 25 of the compounds above.
CPE protection (higher = active), inactive:
Cc1cc(Br)ccc1NC(=O)CN(C)C(=O)COc1cccc2c1OC(C)(C)C2 -3.52%
CC(C)(C)C1CCC(=O)N(CCOc2ccccc2)CC1 (configuration not stated) -17%
O=C(Nc1ccc2ccccc2c1)C(C1CC1)n1c(=O)c(-c2cc3ccccc3[nH]2)nc2ccccc21 (configuration not stated) -19.6%
COc1cc(C)ccc1OCc1cc(C(=O)NCCN2CCCC(O)C2)no1 (configuration not stated) 4.9%
CC1(C(=O)NS(=O)(=O)c2ccccc2C(F)(F)F)CCN1C(=O)CCc1ccccc1 (configuration not stated) -5.16%
Cc1cccc(C)c1NC(=O)C(C)n1c(-c2ccc(=O)[nH]c2)nc2ccccc21 (configuration not stated) 6.02%
N#C[C@@H]1[C@H](c2ccc(C#Cc3ccccc3F)cc2)[C@H](CO)N1C(=O)C1CCC1 -5.68%
C[C@@H]1CN([C@H](C)CO)C(=O)Cc2cc(NC(=O)C3CC3)ccc2O[C@H]1CN(C)C(=O)Nc1ccccc1 -0.483% [at 21 µM]
CC(C)Oc1ccccc1OC1(C)CCN(Cc2ccc(OC(F)(F)F)cc2)C1 (configuration not stated) 17.1%
CCCC#Cc1cnc2c(c1)C(=O)N([C@@H](C)CO)C[C@@H](C)[C@H](CN(C)C(=O)c1ccc3c(c1)OCO3)O2 14%
O=C1Nc2ccccc2C(=O)N(C2CCCC2)C1C(=O)NC1CC1 (configuration not stated) -7.26%
CC(C)(C)NC(=O)C(c1cccc2ccccc12)n1c(=O)c(-c2ccccc2)nc2ccccc21 (configuration not stated) -34.4%
Cc1ccccc1S(=O)(=O)N1C[C@@H](O)COC[C@@H]2O[C@H](CC(=O)N3CCCCC3)CC[C@H]21 8.68%
O=S(=O)(NCCC1=CCCCC1)c1ccc(Br)cc1 3.04%
CSCCC(NS(=O)(=O)c1cccs1)C(=O)NCc1ccccc1 (configuration not stated) -0.773%
O=C(C1CCCCC1)N1C[C@H](O)[C@@H](n2cc(C3CC3)nn2)C[C@@H]1c1ccccc1 3.91%
O=C(NCCN1CCC(n2c(=O)[nH]c3ccccc32)CC1)c1ccccc1 8.45%
CC(C)(C)OC(=O)N1CCC(NC(=O)c2nc[nH]c2C(=O)NCc2ccccc2)CC1 20%
CN(CC(=O)Nc1ccc(F)cc1)C(=O)COC(=O)c1nc(Cl)ccc1Cl 9.36%
CC(C)Cn1c(=S)[nH]c2cc(C(=O)NCc3ccccc3F)ccc2c1=O 0.65%
O=C1c2ccccc2CN1CCSC(=S)N1CCOCC1 -2.61%
CC(C)SCc1cc(N2CCCC2)nc(-c2ccccc2)n1 -9.75%
COCCNC(=O)CCC1CCN(Cc2ccc(-c3ccccc3)cc2)CC1 -10.3%
CC(C)(C)NC(=O)COc1coc(CN2CCN(Cc3ccccc3)CC2)cc1=O 10.1%
C[C@@H]1CN([C@@H](C)CO)C(=O)c2cc(C#Cc3cccc(F)c3)cnc2O[C@@H]1CN(C)C(=O)C1CCC1 -0.303%
